The source of these data is the supplement of paper PMC5407854, “Inhibitor of ppGalNAc-T3-mediated O-glycosylation blocks cancer cell invasiveness and lowers FGF23 levels” (eLife, 2017).

Whole data set: some 1,700 compounds, median “T2 sensor activation Q score (MG/GFP ratio z-score vs DMSO controls)” near 0.3, cut for the highest 2% near 1.9. Some of the results follow.

The assay concerns ppGalNAc-T2 sensor. The assay is described as follows: T2 sensor activation Q score (MG/GFP ratio z-score vs DMSO controls) (SD units); higher = more sensor activation (inhibition of ppGalNAc-T2 glycosylation). Particulars: HEK293 sensor cells; 10 µM; 6 h. The method, then: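 Cells were treated with compound at 10 uM for 6 h, then MG/GFP ratio was read by flow cytometry (10,000 cells per well, duplicate wells). Q = (R - R_neg)/SD_neg relative to DMSO vehicle controls; the signal rises when the glycosyltransferase is inhibited.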
As for `Cc1csc(NC(=O)c2ccc(C(=O)Nc3nc(C)cs3)cc2)n1`, the “T2 sensor activation Q score” value was determined as 0.5. The value for `O=C(c1ccccc1)C1N=NCC1c1ccc(Cl)cc1` (stereo not drawn) was 0.05; that for `CC(=O)OCCn1c([N+](=O)[O-])cnc1/C=[N+](\[O-])C1CCCCC1` was -0.9. In the case of `O=C(O)CCC1(c2ccccc2)NC(=O)NC1=O` (stereo not drawn) it was 0.95. The value for `CC1(C)CC(=O)C(CC(=O)c2ccccc2)=C(NN=C(N)N)C1` was -0.15; that for `CN1N=C(N)c2cn([C@@H]3O[C@H](COP(=O)(O)O)[C@@H](O)[C@H]3O)c3ncnc1c23` was 1.15; that for `Cn1ncc2c(Nc3cccc(Cl)c3)nc(Nc3cccc(Cl)c3)nc21` was 0.9. Take `CC1=C2C3OC(=O)C(C)C3CCC2(C)C=C(Cl)C1=O` (stereo not drawn): the “T2 sensor activation Q score” value came to 0.95.

Consider `O=C(NN1CCCCC1)NN1CCCCC1`, for which the “T2 sensor activation Q score” value is 1.5.

`Cc1cc(C)c2c(SC(C)C)nc(N)nc2n1`: the “T2 sensor activation Q score” value was -0.45. In the case of `Cc1c(C(C)(C(=O)O)c2c(C)n(C)c3ccccc23)c2ccccc2n1C` it was 0.65; in that of `O=C(O)/C=C/C(=O)Nc1cccc2cccnc12`, 0.3. As for `NNC(=O)c1nnsc1-c1csnn1`, the “T2 sensor activation Q score” value stood at 0.7. Turning to `OCc1nnn(-c2ccccc2)c1CO`, the “T2 sensor activation Q score” value came to 0.8. In the case of `Cc1ccc2c(c1)C(=C(C#N)C#N)CCN2` it was 1.45.

On to `Clc1ncnc2[nH]ccc12`, for which the “T2 sensor activation Q score” value is -1.5. In the case of `CCCN(CCC)c1ccc(/C=C/c2ccc3cc(OCC)ccc3n2)cc1` it was -0.05; in that of `CN1C(=C=Cc2cc(I)c(O)c(I)c2)C(C)(C)c2ccccc21`, 3.65.

Take `O=C(CSc1nc2ccc([N+](=O)[O-])cc2s1)c1ccc2ccccc2c1`: the “T2 sensor activation Q score” value amounted to 0.95.

On to `CC(=O)NC1(C(=O)O)CCCC1`, for which the “T2 sensor activation Q score” value was -0.95. In the case of `Nc1nc2ccc([N+](=O)[O-])cc2[nH]1` it was 1.15. The value for `Nc1ccc(C(=O)Oc2ccc([N+](=O)[O-])cc2)cc1` was 1.55; that for `C/C(=C\c1csc(C)n1)[C@@H]1C[C@@H]2O[C@]2(C)CCC[C@H](C)[C@H](O)[C@@H](C)C(=O)C(C)(C)[C@@H](O)CC(=O)N1` was -0.5; that for `c1cncc(-c2nc3ccccc3s2)c1` was 0.7. Turning to `N#Cc1ccc(NC2c3ccccc3CC2O)cc1` (stereo not drawn), the “T2 sensor activation Q score” value is -0.4.

Consider `O=c1[nH]c(SCc2ccccc2[N+](=O)[O-])nc2nc[nH]c12`, for which the “T2 sensor activation Q score” value was 1.15. In the case of `Cc1ccc(/C=C2\CCOC2=O)cc1` it was 0.65; in that of `Nc1nc(=S)ss1`, 1.35.

As for `ClC(Cl)(Cl)C1=NCc2nnn(Cc3ccccc3)c2N1`, the “T2 sensor activation Q score” value came out at 1.2. For the molecule `CCOC(=O)c1[nH]c(C(=O)O)c(OC(=O)CC)c1C`, the “T2 sensor activation Q score” value is 1.3.

With `Cc1ccc(NC(=O)c2ccc(CN3CCN(C)CC3)cc2)cc1Nc1nccc(-c2cccnc2)n1`, the “T2 sensor activation Q score” value is -0.45. The value for `COc1cc2c(Nc3ccc(Br)cc3F)ncnc2cc1OCC1CCN(C)CC1` was -1.7; that for `COc1ccccc1NC(=O)c1cc2ccccc2cc1O` was 0.8.
